Data as given in PubChem BioAssay AID720505 (Drosophila RNAi Screening Center, 2013)

Assay: 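Fly regulators or components of the CRAC channel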 (primary screen)
Cells: Drosophila S2R+ cells
Reagents: long dsRNA against Drosophila genes
Conditions: thapsigargin (2 µM) in calcium-free buffer to empty internal stores, then 2 mM calcium added back
Measured: 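Stores emptied by 2 µM thapsigargin without calcium, then 2 mM calcium re-added; fluo-4 fluorescence followed by FLIPR in 384-well plates, per-well averaged endpoint, raw; two screen passes, some wells retested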
Scale: calcium signal and retest calcium signal: higher = more calcium entry after store depletion
Hit rule: 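About 1500 genes called as lowering calcium entry, by varying amounts, judged against per-plate control wells with STIM1 as positive and Rho1 as negative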
Meaning of the calls: active = called as lowering calcium entry; inactive = not called
The deposit covers about 20,000 reagents; shown is a random part of those that have a named target and a result. Of all reagents, about 2,100 (10%) got an active call. 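Raw plate signals without normalisation; calls rest on control-based scores that were not deposited; replicate 2 separates called from uncalled poorly.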 A plus sign joins genes that one reagent is predicted to hit. Reagent sequences are not shown. Not given: the amount of reagent, the time to read-out.

The opening 6 records, to show the layout:
target,amplicon,"calcium signal, replicate 1","calcium signal, replicate 2","retest calcium signal, replicate 1","retest calcium signal, replicate 2",activity call
Tsf3,DRSC06849,65.5,184,,,active
eco,DRSC11006,111,81.6,,,inactive
CG13806,DRSC08341,51,103,,,inactive
CG3544,DRSC00613,116,148,,,inactive
Mer,DRSC20259,156,155,,,inactive
CG9578,DRSC20694,155,141,,,inactive

The listing, from the start:
target,amplicon,"calcium signal, replicate 1","calcium signal, replicate 2","retest calcium signal, replicate 1","retest calcium signal, replicate 2",activity call
Tsf3,DRSC06849,65.5,184,,,active
eco,DRSC11006,111,81.6,,,inactive
CG13806,DRSC08341,51,103,,,inactive
CG3544,DRSC00613,116,148,,,inactive
Mer,DRSC20259,156,155,,,inactive
CG9578,DRSC20694,155,141,,,inactive
CG2150,DRSC15420,82.7,130,,,inactive
CG14118,DRSC10122,60.5,72.5,,,active
MED16,DRSC04506,44.6,150,,,inactive
SkpA,DRSC18833,101,182,,,inactive
Mvb12,DRSC20027,106,129,,,inactive
CG3224,DRSC18295,208,169,,,inactive
asun,DRSC16733,135,216,,,inactive
Gr98c,DRSC22212,123,252,,,inactive
CG15098,DRSC06527,105,76.5,,,inactive
Cerk,DRSC12285,92.2,104,,,inactive
IKKepsilon,DRSC03550,201,121,,,inactive
CG8152,DRSC07083,124,206,,,inactive
FASN1,DRSC00268,131,184,,,inactive
ci,DRSC17172,89.6,150,,,inactive
Tnpo,DRSC11309,72.2,75.8,,,active
IFT20 + CG10395,DRSC22660,97.1,162,,,inactive
Atf3,DRSC17225,110,137,,,inactive
Atf3,DRSC22996,116,125,,,inactive
Suv3,DRSC12335,117,108,,,inactive
Art9,DRSC16584,114,162,,,inactive
inaF-B + inaF-D + inaF-C + 1 more,DRSC20342,117,103,,,inactive
Syn,DRSC16876,138,116,,,inactive
numb,DRSC03584,89.6,117,,,inactive
CG13716,DRSC08325,79.5,65.5,105,103,inactive
CG13716,DRSC22815,102,88.8,,,inactive
CG8229 + CG33199,DRSC05134,66.6,84.5,,,active
CG30275,DRSC04163,154,199,,,inactive
poe,DRSC03593,126,219,,,inactive
lncRNA:CR30055,DRSC22439,154,211,,,inactive
Mayo,DRSC14300,137,154,,,inactive
CG13855,DRSC14705,183,148,,,inactive
ssp2,DRSC11052,72.6,87.8,,,active
CG9517 (retired record),DRSC20192,87.2,122,,,inactive
CG9517 (retired record),DRSC20193,115,151,,,inactive
CG43058,DRSC05434,65.8,116,,,inactive
yin,DRSC18854,119,167,,,inactive
yin,DRSC21889,115,227,,,inactive
mRpS30,DRSC20107,111,107,,,inactive
COX6AL2,DRSC10082,67.3,96.5,,,active
CG4440,DRSC02747,57.7,87.2,,,active
Lim1,DRSC17752,111,90.8,,,inactive
Lim1,DRSC18677,67.5,190,6483,142,active
CG31533,DRSC13018,,,,,inactive
CG17298,DRSC15221,106,89.1,,,inactive
Rbbp5 + CG6434 (retired record),DRSC10635,66.8,152,,,active
CG31777,DRSC00201,84,115,,,inactive
AGO3,DRSC21386,73.6,92.5,,,inactive
Tmem131,DRSC07154,122,130,,,inactive
Gtpx,DRSC08221,99.2,133,,,inactive
Gtpx,DRSC22117,87.1,125,,,inactive
